Laboratory results reported in paper PMC6983718.
Results are given in words; binding and its absence hold for the method and conditions named. In cells and extracts the contact can be indirect. Some results given as binding are weak or reduced against the parent protein; the word gives no strength. For some assays here: Tags and fused reporters may be left off the sequences shown.

Protein sequences, listed by entry. Tags and fused reporters are not part of them.
UniProt P02828: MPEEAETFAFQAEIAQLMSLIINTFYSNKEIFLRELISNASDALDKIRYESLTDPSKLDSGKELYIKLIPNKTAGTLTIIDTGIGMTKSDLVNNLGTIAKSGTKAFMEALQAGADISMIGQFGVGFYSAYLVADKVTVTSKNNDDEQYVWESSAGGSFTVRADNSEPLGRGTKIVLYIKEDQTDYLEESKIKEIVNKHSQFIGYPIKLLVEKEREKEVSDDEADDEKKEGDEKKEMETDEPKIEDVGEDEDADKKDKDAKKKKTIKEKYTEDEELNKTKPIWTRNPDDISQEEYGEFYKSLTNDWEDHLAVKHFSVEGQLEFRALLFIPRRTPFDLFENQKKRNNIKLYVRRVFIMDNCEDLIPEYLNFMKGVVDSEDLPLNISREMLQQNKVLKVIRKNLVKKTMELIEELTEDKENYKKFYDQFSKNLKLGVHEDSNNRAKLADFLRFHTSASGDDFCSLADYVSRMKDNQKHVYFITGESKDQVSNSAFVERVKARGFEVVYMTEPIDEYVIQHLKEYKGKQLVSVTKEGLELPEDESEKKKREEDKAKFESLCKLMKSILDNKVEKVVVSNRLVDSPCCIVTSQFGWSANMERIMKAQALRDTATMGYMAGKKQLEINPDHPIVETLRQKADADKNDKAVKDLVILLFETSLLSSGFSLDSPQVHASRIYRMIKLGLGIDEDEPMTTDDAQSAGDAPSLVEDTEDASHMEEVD

Experiments:
Mora–GFP (Drosophila) = target: T1, Mora–GFP (Drosophila) (UniProt Q9VCC0); assay: co-IP; anti-GFP IPs from extracts of control (WT) embryos and of embryos expressing Mora–GFP or Hsp83–GFP, western blot
T1 sequence: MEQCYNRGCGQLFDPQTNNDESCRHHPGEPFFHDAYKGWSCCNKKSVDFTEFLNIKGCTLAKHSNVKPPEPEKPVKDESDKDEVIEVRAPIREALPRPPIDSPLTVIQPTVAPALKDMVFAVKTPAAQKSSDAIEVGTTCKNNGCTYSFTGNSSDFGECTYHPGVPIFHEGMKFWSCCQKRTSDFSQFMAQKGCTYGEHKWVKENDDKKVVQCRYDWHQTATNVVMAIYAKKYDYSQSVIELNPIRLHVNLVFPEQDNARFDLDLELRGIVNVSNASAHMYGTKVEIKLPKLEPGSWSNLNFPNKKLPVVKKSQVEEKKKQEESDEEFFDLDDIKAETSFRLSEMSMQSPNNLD

Hsp83–GFP (Drosophila) = Hsp83–GFP (Drosophila) (UniProt P02828); assay: as above

Molecule	binding (Mora–GFP (Drosophila))	binding (Hsp83–GFP (Drosophila))
Hsp83 (from UniProt P02828 1-717)	binds	–
Mora (protein, UniProt Q9VCC0 1-354) MEQCYNRGCGQLFDPQTNNDESCRHHPGEPFFHDAYKGWSCCNKKSVDFTEFLNIKGCTLAKHSNVKPPEPEKPVKDESDKDEVIEVRAPIREALPRPPIDSPLTVIQPTVAPALKDMVFAVKTPAAQKSSDAIEVGTTCKNNGCTYSFTGNSSDFGECTYHPGVPIFHEGMKFWSCCQKRTSDFSQFMAQKGCTYGEHKWVKENDDKKVVQCRYDWHQTATNVVMAIYAKKYDYSQSVIELNPIRLHVNLVFPEQDNARFDLDLELRGIVNVSNASAHMYGTKVEIKLPKLEPGSWSNLNFPNKKLPVVKKSQVEEKKKQEESDEEFFDLDDIKAETSFRLSEMSMQSPNNLD	–	binds
